# Results: PubChem BioAssay AID1671190 (National Center for Advancing Translational Sciences (NCATS), 2021)
# Sequences of proteins named here, by UniProt entry; tags and fusion partners are left off. A change or cut given only in a name is not applied to a line headed by its entry.
# UniProt P18054: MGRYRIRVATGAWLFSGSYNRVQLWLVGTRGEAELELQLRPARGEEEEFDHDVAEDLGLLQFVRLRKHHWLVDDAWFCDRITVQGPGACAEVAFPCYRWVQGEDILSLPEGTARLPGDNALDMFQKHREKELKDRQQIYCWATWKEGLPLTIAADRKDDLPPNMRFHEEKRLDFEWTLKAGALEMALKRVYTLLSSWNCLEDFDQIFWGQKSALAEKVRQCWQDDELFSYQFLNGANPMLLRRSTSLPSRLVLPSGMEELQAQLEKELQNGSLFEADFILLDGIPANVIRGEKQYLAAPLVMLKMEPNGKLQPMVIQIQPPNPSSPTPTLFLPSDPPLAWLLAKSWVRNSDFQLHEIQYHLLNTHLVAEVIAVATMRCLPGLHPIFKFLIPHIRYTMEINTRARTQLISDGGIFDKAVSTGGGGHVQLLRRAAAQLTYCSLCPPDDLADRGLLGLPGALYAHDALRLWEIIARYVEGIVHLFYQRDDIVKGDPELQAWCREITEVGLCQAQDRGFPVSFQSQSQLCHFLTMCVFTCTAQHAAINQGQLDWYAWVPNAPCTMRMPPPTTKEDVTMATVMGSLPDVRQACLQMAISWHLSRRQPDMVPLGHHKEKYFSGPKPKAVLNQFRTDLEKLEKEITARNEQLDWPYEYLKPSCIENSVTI
# About 6,100 (1.1%) of roughly 580,000 compounds were called active. The inconclusive results got no clear call from the source; some entries with a clear call stand among them for comparison. Calls follow the shape of the dose curve; as a rule, active = well fitted inhibition curve with a large enough effect; inconclusive = small, poorly fitted or top-dose-only effect, or another doubt; inactive = no such curve, though single readings can be large or run the other way. Potencies of inconclusive entries are doubtful fits and often do not repeat.
# Target: Polyunsaturated fatty acid lipoxygenase ALOX12 (Homo sapiens) (UniProt P18054)
# Assay: Primary qHTS assay for inhibitors of human arachidonate 12S-lipoxygenase (ALOX12): Round 2
# Settings: purified 12hLO, xylenol orange hydroperoxide absorbance; activity change, negative = inhibition: at 108 µM (top of the series) unless noted
# Outline: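 Purified human 12hLO at 150 nM in 25 mM Hepes, 0.01% Triton X-100, pH 7.0, preincubated 15 min at room temperature with compound. Reaction started with 40 uM arachidonic acid, 30 min at room temperature. Hydroperoxide measured by Fe-xylenol orange, 573/405 nm absorbance ratio.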
# % is scaled to controls: 0 for no effect and ±100 for the full control effect; potency is read from the fitted curve at half-maximal effect.
SMILES,Potency,"activity change, negative = inhibition"
COc1ccc(Br)cc1/C=N/Nc1cccc(C(=O)O)c1,"inconclusive: 178 µM [inhibitor, partial curve, poor fit]",
Cc1ccc2oc([C@H]3CCN(Cc4ccc(C(=O)O)cc4)C3)nc2c1,,inactive: 69.1% [at 176 µM]
O=c1c2ccccc2cnn1CN1CCN(S(=O)(=O)c2cccc(Cl)c2)CC1,,inactive: -30%
O=C1C=CC(=O)C(CNc2ccc(C(=O)OCc3ccccc3)cc2)=C1,active: 15.8 µM,
CNC(=O)[C@@H]1CN(C(=O)Cc2ccsc2)C[C@H]1c1n[nH]c(C)n1,,inactive: 7.5%
Cc1cc(=O)n(CC(=O)NCCCc2ccccc2)c(N2CCc3ccccc3C2)n1,"inconclusive: 39.8 µM [inhibitor, partial curve]",
O=C(CCC1N=C2c3ccccc3N=C(SCc3cccc(F)c3)N2C1=O)NCCc1ccccc1 (configuration not stated),"inconclusive: 141 µM [inhibitor, single point]",
Cc1ccc2nc(-c3ccc(NC(=O)CCN4C(=O)c5ccccc5C4=O)cc3)sc2c1,,inactive: -8.2%
N#CC(=C1CCCC1)c1nc(-c2ccc(Cl)cc2)cs1,"inconclusive: 44.7 µM [inhibitor, partial curve, poor fit]",
CCOc1ccc(C(=O)Nc2ccc(CN3CCOCC3)cc2)cc1Br,"inconclusive: 89.1 µM [inhibitor, single point]",
CCOc1ccc(N2C(=O)CSC2c2ccncc2)cc1 (configuration not stated),"inconclusive: 1.41 µM [inhibitor, full curve, poor fit]",
COC(=O)CCCC[C@@H]1O[C@H](CCc2ccccc2)Cc2[nH]c(=S)[nH]c(=O)c21,"inconclusive: 50.1 µM [inhibitor, partial curve, poor fit]",
CCOc1ccc(C=O)c2ccccc12,,inactive: 2.58%
CCOC(=O)N1CCc2c(sc(NC(=O)CCS(=O)(=O)c3ccccc3)c2C(N)=O)C1,,inactive: 0%
Cc1cccc(-c2oc3ccccc3c2-c2ccc3c(c2)OCO3)c1,"inconclusive: 0.224 µM [inhibitor, single point]",
COc1ccccc1N1CCN(C(C(=O)O)c2c[nH]c3cc(OCc4ccccc4)ccc23)CC1 (configuration not stated),"inconclusive: 28.2 µM [inhibitor, partial curve]",
COc1ccc(OC)c(NC(=O)Cn2c(=O)n(-c3cccc(C)c3)c(=O)c3c2c2cc(C)ccc2n3C)c1,"inconclusive: 50.1 µM [inhibitor, partial curve, poor fit]",
Cc1cc2c(C)c(C)[nH]c2cc1Br,"inconclusive: 2.51 µM [inhibitor, full curve, poor fit]",
Cc1sc(NC(=O)C2CCCCC2)c(C#N)c1-c1ccccc1,"inconclusive: 7.08 µM [inhibitor, partial curve, poor fit]",
CCCC(=O)N(CC)Cc1cc(=O)[nH]c2ccccc12,,inactive: 5.17%
COc1cc(Cl)c(NC(=O)Cc2coc3cc(C)c(C)cc23)cc1OC,,inactive: -18%
Cc1ccc2[nH]c(=O)c(C(c3nnnn3C(C)(C)C)N3CCN(C(=O)c4ccco4)CC3)cc2c1 (configuration not stated),"inconclusive: 22.4 µM [inhibitor, partial curve, poor fit]",
COCCNc1nc(-c2ccc(OC)cc2)c(-c2ccc(OC)cc2)s1,,inactive: 0.285%

# Part of the list above, tab-delimited.
SMILES	Potency	activity change, negative = inhibition
N#CC(=C1CCCC1)c1nc(-c2ccc(Cl)cc2)cs1	inconclusive: 44.7 µM [inhibitor, partial curve, poor fit]	
CCOc1ccc(C(=O)Nc2ccc(CN3CCOCC3)cc2)cc1Br	inconclusive: 89.1 µM [inhibitor, single point]	

# (further entries)

SMILES,Potency,"activity change, negative = inhibition"
c1cncc(-c2[nH]ncc2CNCc2cccs2)c1,active: 7.08 µM,
CCOC(=O)/C(C#N)=C/N=CN(C)C,,inactive: 11.9%
C(=N\Nc1nc2ccccc2[nH]1)/c1cccc2cccnc12,,inactive: -12.3%
Cn1c(=O)c([N+](=O)[O-])c(N2CCSCC2)c2ccccc21,,inactive: 0%
CC1Cc2cc(/C(O)=C3/C(=O)C(=O)N(CCCn4ccnc4)C3c3ccco3)ccc2O1 (configuration not stated),"inconclusive: 4.47 µM [inhibitor, full curve, poor fit]",
COc1ccccc1-c1cc(-c2cccc([S+](C)(=O)[O-])c2)c2onc(C)c2n1,"inconclusive: 100 µM [inhibitor, partial curve]",
O=C(COc1ccc(Cl)cc1)N1N=C(c2cccs2)CC1c1ccco1 (configuration not stated),"inconclusive: 70.8 µM [inhibitor, partial curve, poor fit]",
COc1ccc(-c2cc(N3CCC(NC(=O)c4cccnc4)C3)n[nH]2)cc1 (configuration not stated),,inactive: 29.6%
CC(O)(c1cccc(F)c1)c1nc(-c2ccc3ccccc3c2)cs1 (configuration not stated),"inconclusive: 89.1 µM [inhibitor, partial curve, poor fit]",
COCCCN1C(=O)C(=O)/C(=C(/O)c2ccc(OC(C)C)c(C)c2)C1c1ccncc1 (configuration not stated),"inconclusive: 6.31 µM [inhibitor, partial curve, poor fit]",
O=C1NC2(CCN(C(=O)c3ccccc3F)C2)N=C1c1cccnc1 (configuration not stated),,inactive: 50.5%
O=C(CCc1ccccc1)NC(=S)Nc1ccccc1Br,"inconclusive: 44.7 µM [inhibitor, partial curve, poor fit]",
CCOc1ccccc1CNC(=O)c1noc(-c2ccc(C)cc2)n1,"inconclusive: 12.6 µM [inhibitor, full curve, poor fit]",
CCOC(=O)c1cc(OC(=O)c2cc(OC)c(OC)c(OC)c2)n(-c2ccccc2)n1,"inconclusive: 44.7 µM [inhibitor, partial curve, poor fit]",
CCN1C(=O)C(=O)N(CC(=O)N2CCN(c3ccccc3)CC2)C1=O,"inconclusive: 112 µM [inhibitor, single point]",
Cc1ccc(-n2ncc3c(=O)n(-c4cccc(C)c4)c(=O)[nH]c32)cc1,"inconclusive: 39.8 µM [inhibitor, full curve, poor fit]",
O=C(CN1C(=O)S/C(=C\c2ccccc2F)C1=O)Nc1ccc2oc(=O)ccc2c1,"inconclusive: 14.1 µM [inhibitor, partial curve, poor fit]",
CN1N=C(C(=O)N2CCN(c3ccc([N+](=O)[O-])cc3)CC2)CCC1=O,"inconclusive: 100 µM [inhibitor, partial curve, poor fit]",
CCOc1ccc(-n2c(SCC(=O)Nc3cc(C)on3)nc3c([nH]c4ccccc43)c2=O)cc1,"inconclusive: 2.51 µM [inhibitor, full curve, poor fit]",
Cc1ccc(-c2nc(-c3ccccn3)no2)cc1[N+](=O)[O-],,inactive: 0%
CCNc1ncc2ncc(=O)n(C[C@H]3CCCO3)c2n1,"inconclusive: 22.4 µM [inhibitor, partial curve, poor fit]",
CN(CCC(=O)Nc1ccc2c(c1)OCO2)Cc1ccccc1,"inconclusive: 0.282 µM [inhibitor, full curve, poor fit]",
CC1CCC(NC(=O)C(Cc2c[nH]c3ccccc23)NC(=O)c2ccccc2Cl)CC1 (configuration not stated),"inconclusive: 79.4 µM [inhibitor, partial curve, poor fit]",

SMILES,Potency,"activity change, negative = inhibition"
Cc1ccc(NCc2ccccc2CO)c(C)c1,"inconclusive: 35.5 µM [inhibitor, partial curve, poor fit]",
Cc1ccc(S(=O)(=O)N2CCC(C(=O)Nc3nnc(-c4ccc(Cl)cc4)o3)CC2)c(C)c1,"inconclusive: 5.62 µM [inhibitor, full curve, poor fit]",
CCOC(=O)CCNCC1COc2ccccc2O1 (configuration not stated),"inconclusive: 2 µM [inhibitor, partial curve, poor fit]",
Cc1ccnc(NC(=O)c2ccc([N+](=O)[O-])s2)c1,"inconclusive: 5.62 µM [inhibitor, full curve]",
COc1ccc(C(=O)C(Cl)C(=O)c2ccc(OC)cc2)cc1,"inconclusive: 17.8 µM [inhibitor, partial curve]",
COc1cccc(-c2nc(SCC(=O)Nc3nc(-c4ccccc4)c(C)s3)[nH]c(=O)c2C#N)c1,active: 14.1 µM,
CC1=CC(C)(C)NC(=S)N1C(C)c1ccccc1 (configuration not stated),"inconclusive: 50.1 µM [inhibitor, partial curve, poor fit]",
Oc1ccc2ccccc2c1C=Nc1ccc(F)c(F)c1F,"inconclusive: 28.2 µM [inhibitor, partial curve, poor fit]",
CC(C)=CC(=O)NC(c1cccs1)C1CCCC1 (configuration not stated),,inactive: 35.8%
CCN(CC(=O)Nc1c(F)cccc1F)C(=O)/C=C/c1ccc2ccccc2n1,active: 31.6 µM,
CCN(Cc1ccccc1)C(=O)CSc1nc(C2CC2)nc2ccccc12,,inactive: 8.3%
O=C(NC1CCCC1)c1ccc(I)cc1,,inactive: 23.4%
COc1ccc(/C=C/C(=O)c2ccc(O)cc2)cc1C,"inconclusive: 100 µM [inhibitor, partial curve, poor fit]",
Cc1ccc(C(=O)N2CCC(n3c(=O)[nH]c4ccccc43)CC2)cc1,"inconclusive: 112 µM [inhibitor, single point]",
CCC(=O)N1N=C(c2cc(Cl)ccc2Cl)CC1c1ccc2nccnc2c1 (configuration not stated),"inconclusive: 44.7 µM [inhibitor, partial curve, poor fit]",
COc1cccc(-c2noc(COc3ccc(C(C)(C)C)cc3)n2)c1,,inactive: -15.1%
COC(=O)[C@H](NC(=O)C1=C[C@@H](NC(=O)c2ccc(SC)cc2OC)[C@@H](O)[C@H](O)C1)C(C)C,"inconclusive: 31.6 µM [inhibitor, partial curve, poor fit]",
Cc1cccc(NS(=O)(=O)c2ccc(Cl)c(C(=O)Nc3ccc4oc(C)nc4c3)c2)c1,,inactive: 16.5%
COc1ccc(N2CCN(C(=O)c3cc4c(C)nc5ccccc5c4o3)CC2)cc1,,inactive: 3.24%
CC(C)N1CCN(C(=O)c2ccc([N+](=O)[O-])cc2)CC1,"inconclusive: 0.501 µM [inhibitor, full curve, poor fit]",
Cc1noc(C)c1-c1ccc(C(=O)Nc2cccc(C(F)(F)F)c2)c2occc12,"inconclusive: 44.7 µM [inhibitor, partial curve, poor fit]",

# Two records picked at random from those above, as already listed:
SMILES,Potency,"activity change, negative = inhibition"
Cc1noc(C)c1-c1ccc(C(=O)Nc2cccc(C(F)(F)F)c2)c2occc12,"inconclusive: 44.7 µM [inhibitor, partial curve, poor fit]",
CC(C)N1CCN(C(=O)c2ccc([N+](=O)[O-])cc2)CC1,"inconclusive: 0.501 µM [inhibitor, full curve, poor fit]",
